No constants are given. Whether binding was seen depends on the method and setting. Binding seen in cells or lysates may run through a third protein. Some entries that bind do so weakly or less than the wild type.
Target: Latent TGF-β binding protein-1 (mouse (endogenous in Swiss 3T3)) (UniProt Q8CG19)
Assay: co-IP; LTBP-1 immunoprecipitated with Ab-39 from lysates of Swiss 3T3 cells induced (+) or non-induced (-) for TG2 expression; reducing SDS-PAGE, blot for LTBP-1 and TG2

Chains of the proteins cited; added tags and fusions are not shown. Residues count along the entry.
UniProt Q8CG19, residues 24-1712: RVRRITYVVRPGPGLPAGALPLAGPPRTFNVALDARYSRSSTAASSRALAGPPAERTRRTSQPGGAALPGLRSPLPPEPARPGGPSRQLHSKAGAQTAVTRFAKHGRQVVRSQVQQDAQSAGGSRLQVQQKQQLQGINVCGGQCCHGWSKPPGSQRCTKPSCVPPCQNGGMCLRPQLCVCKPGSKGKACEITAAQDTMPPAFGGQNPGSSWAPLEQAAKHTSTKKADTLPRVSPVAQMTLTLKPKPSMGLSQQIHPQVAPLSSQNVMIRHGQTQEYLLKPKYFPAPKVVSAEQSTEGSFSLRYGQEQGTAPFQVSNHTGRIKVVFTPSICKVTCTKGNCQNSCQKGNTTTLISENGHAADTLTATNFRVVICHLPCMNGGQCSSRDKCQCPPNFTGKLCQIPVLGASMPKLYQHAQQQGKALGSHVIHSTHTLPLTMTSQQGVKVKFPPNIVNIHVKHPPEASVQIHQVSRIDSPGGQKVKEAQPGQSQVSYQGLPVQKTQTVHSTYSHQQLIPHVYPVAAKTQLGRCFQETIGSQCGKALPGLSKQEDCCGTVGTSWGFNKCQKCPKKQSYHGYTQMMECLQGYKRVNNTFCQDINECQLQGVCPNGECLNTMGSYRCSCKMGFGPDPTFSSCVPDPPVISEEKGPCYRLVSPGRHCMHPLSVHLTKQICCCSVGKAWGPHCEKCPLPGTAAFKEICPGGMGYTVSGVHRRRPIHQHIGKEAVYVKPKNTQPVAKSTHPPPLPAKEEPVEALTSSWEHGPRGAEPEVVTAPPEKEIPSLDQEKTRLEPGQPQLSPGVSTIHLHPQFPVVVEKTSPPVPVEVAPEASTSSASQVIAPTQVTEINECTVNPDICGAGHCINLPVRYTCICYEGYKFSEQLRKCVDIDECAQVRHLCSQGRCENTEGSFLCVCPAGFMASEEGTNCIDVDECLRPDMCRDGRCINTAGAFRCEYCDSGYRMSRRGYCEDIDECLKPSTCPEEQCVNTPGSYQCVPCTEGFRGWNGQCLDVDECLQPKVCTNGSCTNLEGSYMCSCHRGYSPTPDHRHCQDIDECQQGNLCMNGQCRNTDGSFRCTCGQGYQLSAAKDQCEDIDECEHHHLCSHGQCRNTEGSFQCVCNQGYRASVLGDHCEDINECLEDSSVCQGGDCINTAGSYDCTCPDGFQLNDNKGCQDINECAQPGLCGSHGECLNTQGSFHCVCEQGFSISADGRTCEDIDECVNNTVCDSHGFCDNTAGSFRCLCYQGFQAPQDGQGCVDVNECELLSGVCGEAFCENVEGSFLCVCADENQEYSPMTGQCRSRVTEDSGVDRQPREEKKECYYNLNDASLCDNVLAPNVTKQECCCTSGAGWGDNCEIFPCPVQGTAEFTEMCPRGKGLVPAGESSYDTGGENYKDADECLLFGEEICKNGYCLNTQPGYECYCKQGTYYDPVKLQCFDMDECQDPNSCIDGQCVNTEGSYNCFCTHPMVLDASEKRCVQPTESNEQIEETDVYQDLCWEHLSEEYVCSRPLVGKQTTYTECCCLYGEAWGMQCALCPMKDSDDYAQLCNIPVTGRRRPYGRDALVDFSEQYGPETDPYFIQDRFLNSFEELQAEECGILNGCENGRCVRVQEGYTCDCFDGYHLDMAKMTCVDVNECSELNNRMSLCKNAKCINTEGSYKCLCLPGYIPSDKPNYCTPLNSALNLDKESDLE

binding: binds
B1: Transglutaminase-2 expressed in Swiss 3T3 fibroblasts (clone TG3) (enzyme, UniProt P21980 1-687)
chain: MAEELVLERCDLELETNGRDHHTADLCREKLVVRRGQPFWLTLHFEGRNYEASVDSLTFSVVTGPAPSQEAGTKARFPLRDAVEEGDWTATVVDQQDCTLSLQLTTPANAPIGLYRLSLEASTGYQGSSFVLGHFILLFNAWCPADAVYLDSEEERQEYVLTQQGFIYQGSAKFIKNIPWNFGQFEDGILDICLILLDVNPKFLKNAGRDCSRRSSPVYVGRVVSGMVNCNDDQGVLLGRWDNNYGDGVSPMSWIGSVDILRRWKNHGCQRVKYGQCWVFAAVACTVLRCLGIPTRVVTNYNSAHDQNSNLLIEYFRNEFGEIQGDKSEMIWNFHCWVESWMTRPDLQPGYEGWQALDPTPQEKSEGTYCCGPVPVRAIKEGDLSTKYDAPFVFAEVNADVVDWIQQDDGSVHKSINRSLIVGLKISTKSVGRDEREDITHTYKYPEGSSEEREAFTRANHLNKLAEKEETGMAMRIRVGQSMNMGSDFDVFAHITNNTAEEYVCRLLLCARTVSYNGILGPECGTKYLLNLNLEPFSEKSVPLCILYEKYRDCLTESNLIKVRALLVEPVINSYLLAERDLYLENPEIKIRILGEPKQKRKLVAEVSLQNPLPVALEGCTFTVEGAGLTEEQKTVEIPDPVEAGEEVKVRMDLLPLHMGLHKLVVNFESDKLKAVKGFRNVIIGPA

Source: paper PMC5046136
